# Out of some 390,000 compounds screened, about 4,000 (1%) were called active. The inconclusive results got no clear call from the source; some entries with a clear call stand among them for comparison. Calls follow the shape of the dose curve; as a rule, active = well fitted inhibition curve with a large enough effect; inconclusive = small, poorly fitted or top-dose-only effect, or another doubt; inactive = no such curve, though single readings can be large or run the other way. Potencies of inconclusive entries are doubtful fits and often do not repeat.
# Sequences of proteins named here, by UniProt entry; tags and fusion partners are left off. A change or cut given only in a name is not applied to a line headed by its entry.
# UniProt Q9UNA4: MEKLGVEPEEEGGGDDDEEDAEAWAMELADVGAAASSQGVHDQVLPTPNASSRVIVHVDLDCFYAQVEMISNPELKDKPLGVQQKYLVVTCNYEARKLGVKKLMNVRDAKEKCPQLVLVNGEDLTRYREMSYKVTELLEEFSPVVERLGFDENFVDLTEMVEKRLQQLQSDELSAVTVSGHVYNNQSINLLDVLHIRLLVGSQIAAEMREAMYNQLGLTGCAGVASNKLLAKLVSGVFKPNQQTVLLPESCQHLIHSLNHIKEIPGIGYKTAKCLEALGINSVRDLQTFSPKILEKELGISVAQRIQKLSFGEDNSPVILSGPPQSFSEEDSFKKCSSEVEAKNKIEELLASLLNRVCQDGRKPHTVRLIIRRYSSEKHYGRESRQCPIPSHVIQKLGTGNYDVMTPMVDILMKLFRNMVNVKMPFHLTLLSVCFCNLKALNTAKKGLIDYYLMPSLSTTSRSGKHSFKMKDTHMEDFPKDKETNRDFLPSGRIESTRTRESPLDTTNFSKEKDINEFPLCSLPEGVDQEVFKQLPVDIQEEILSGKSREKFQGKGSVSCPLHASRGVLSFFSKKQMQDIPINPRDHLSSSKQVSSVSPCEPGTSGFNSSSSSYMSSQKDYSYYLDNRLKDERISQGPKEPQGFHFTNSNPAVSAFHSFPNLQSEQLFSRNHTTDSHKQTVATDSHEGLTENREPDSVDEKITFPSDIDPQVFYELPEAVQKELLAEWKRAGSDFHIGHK
# Biological target: DNA polymerase iota (Homo sapiens) (UniProt Q9UNA4)
# Assay: qHTS for Inhibitors of Polymerase Iota
# Conditions: Pol iota fluorescent replication assay, 10 min; series mostly up to 115 µM
# Procedure, shortened: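 Fluorescent replication assay read twice, at 0 min and 10 min after adding 50 nM (final) substrate. Enzyme (10 nM) and compounds were first incubated 15 min at room temperature; enzyme-free buffer wells were negative controls.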
# Potency is read from the fitted curve at half-maximal effect.
row,Compound,Potency
1,Cc1nn(Cc2ccccc2)c2c1C(c1cccc(Cl)c1)C(C#N)=C(N)O2 (centres undefined),"inconclusive: 11.2 µM [inhibitor, partial curve, poor fit]"
2,CCOC(=O)CSc1nc2sc(C)c(C)c2c(=O)[nH]1,inactive
3,O/N=C1\CC2(Cc3nonc31)OCCO2,"inconclusive: 79.4 µM [inhibitor, single point]"
4,CC(=O)Nc1ccc(OC(=O)c2ccc(Cl)cc2)cc1,"inconclusive: 89.1 µM [inhibitor, partial curve, poor fit]"
5,COC(=O)c1nnn(-c2nonc2N)c1-c1cccs1,"inconclusive: 35.5 µM [inhibitor, single point]"
6,COc1ccc(-n2c(C)c3c(OC)cccc(=O)c3c2C)cc1,inactive
7,CCC1CCCCN1C(=O)CSc1nnc(-c2ccc(OC)c(OC)c2)o1 (centres undefined),inactive
8,CC(C)(C)C1CCc2c(sc(NC(=O)c3noc4c3CCCC4)c2C#N)C1 (centres undefined),inactive
9,CC1CCCN(C(=S)SCC(=O)c2cc(Br)cc(Br)c2O)C1 (centres undefined),active: 22.4 µM
10,O=C(Nc1ccnn1C1CCNCC1)c1ccc2c(c1)OCO2,"inconclusive: 50.1 µM [inhibitor, partial curve, poor fit]"
11,O=C(N/N=C/c1ccc(OC(=O)c2ccccc2Cl)cc1)c1ccc(O)cc1,"inconclusive: 79.4 µM [inhibitor, partial curve, poor fit]"
12,COc1ccc(C(=O)COC(=O)c2ccccc2NS(=O)(=O)c2ccc(O)c([N+](=O)[O-])c2)cc1,"inconclusive: 28.2 µM [inhibitor, single point]"
13,S=C(NCc1ccco1)NCc1ccco1,"inconclusive: 56.2 µM [inhibitor, partial curve, poor fit]"
14,C#Cc1ccc([C@H]2C=C(C(=O)O)O[C@@H](OCc3ccc(CO)cc3)C2)cc1,"inconclusive: 70.8 µM [inhibitor, partial curve, poor fit]"
15,CC(=O)Nc1ccc(/C=C/c2ccc3cccc([N+](=O)[O-])c3n2)cc1,inactive
16,NS(=O)(=O)c1ccc(CCNCC#Cc2ccccc2)cc1,"inconclusive: 3.16 µM [inhibitor, full curve, poor fit]"
17,Oc1ccc(Cl)cc1C1C=C(c2ccc3c(c2)OCO3)NC(c2cc(Br)ccc2F)N1 (centres undefined),"inconclusive: 44.7 µM [inhibitor, partial curve, poor fit]"
18,CC(=O)c1ccc(NC(=O)c2cnn3c2NC(=C2CC2)C=C3C(F)F)cc1,inactive
19,CCOC(=O)C1CCN(C(=O)CCc2ccccc2)CC1,"inconclusive: 35.5 µM [inhibitor, single point]"
20,CC1CCN(c2oc(-c3cccs3)nc2S(=O)(=O)c2ccccc2)CC1,"inconclusive: 89.1 µM [inhibitor, single point]"
21,NS(=O)(=O)c1ccc(N=Nc2c(O)[nH]c3ccc(Br)cc23)cc1,"inconclusive: 50.1 µM [inhibitor, partial curve]"
22,CN1/C(=C\C(=O)C(F)F)C(C)(C)c2ccccc21,inactive
23,COc1cc2c(NC3CCN(C)CC3)nc(N3CCCN(C)CC3)nc2cc1OCC1CCNCC1,"inconclusive: 8.91 µM [inhibitor, partial curve, poor fit]"

row,Compound,Potency
1,COc1cccc(/C=C2/C(=O)NN(c3ccc(F)cc3)C2=O)c1,"inconclusive: 12.6 µM [inhibitor, partial curve, poor fit]"
2,COC(=O)CC(NC(=S)NC(=O)c1ccccc1)c1ccc(Br)cc1 (centres undefined),inactive
3,Cc1ccc(S(=O)(=O)Nc2nc(CN3CCOCC3)nc3sc(C)c(C)c23)cc1,"inconclusive: 70.8 µM [inhibitor, partial curve]"
4,Cc1nn(C)c2c1c(-c1ccccc1)cc(=O)n2Cc1ccc(F)cc1,inactive
5,Cc1ccccc1OCC(=O)Nc1ccc2c(c1)OCO2,inactive
6,O=C(CCN1C(=O)c2ccccc2C1=O)NC(=S)Nc1cccc(Cl)c1,"inconclusive: 3.55 µM [inhibitor, partial curve, poor fit]"
7,Cc1cccc(-c2c3c(=O)n(C)c(=O)n(C)c3c3c(C)nc4ccccc4n23)c1,"inconclusive: 100 µM [inhibitor, partial curve, poor fit]"
8,CC(/C=C/c1ccco1)=N\NC(=O)CNc1ccc2ccccc2c1,inactive
9,COc1nc(Nc2ccc3c(c2)OCO3)nc(OC)n1,"inconclusive: 22.4 µM [inhibitor, full curve, poor fit]"
10,Cc1ccc(NC(=O)CN2C(=O)N/C(=C\c3cccn3-c3cccc(C(=O)O)c3)C2=O)cc1,active: 14.1 µM
11,CN(NS(=O)(=O)c1ccc(Br)cc1)c1nc(C(F)(F)F)nc2ccccc12,"inconclusive: 89.1 µM [inhibitor, partial curve, poor fit]"
12,COc1cc(OC)c(OC)cc1CN1CCc2nc(Nc3ccc4c(c3)OCCO4)ncc2C1,inactive
13,CC(/C=N/n1cnnc1)=C\c1ccco1,"inconclusive: 7.94 µM [inhibitor, full curve, poor fit]"
14,CCCCC[C@H](O)/C=C/[C@@H]1[C@@H](C/C=C\CCCC(=O)OC)[C@@H](O)C[C@H]1O,active: 1.26 µM
15,c1csc(Cc2nn3c(-c4ccncc4)nnc3s2)c1,active: 20 µM
16,Cc1[nH]n(-c2ccccc2)c(=O)c1C(c1cc(Cl)ccc1O)c1c(C)[nH]n(-c2ccccc2)c1=O,"inconclusive: 0.708 µM [inhibitor, full curve, poor fit]"
17,O=C(NCc1cccnc1)c1cccc2c1C(=O)N(C1CCCCC1)C2,"inconclusive: 25.1 µM [inhibitor, full curve, poor fit]"
18,NC(CO)(CO)COCc1ccccc1,inactive
19,CCOC(=O)c1ccc(NC2c3ncccc3C(=O)N2Cc2ccc(F)cc2)cc1 (centres undefined),"inconclusive: 1.78 µM [inhibitor, full curve, poor fit]"
20,Cc1nc(Nc2ccncc2)c2oc3ccccc3c2n1,"inconclusive: 25.1 µM [inhibitor, single point]"
21,Cc1ccc(-c2nnc3ccc(SCC(=O)c4ccccc4)nn23)cc1,inactive
22,O=C(NCCc1csc(-c2ccc(C(F)(F)F)cc2)n1)c1ccc(F)c(F)c1,"inconclusive: 79.4 µM [inhibitor, single point]"
23,CCN(C(=O)Cn1c(=O)n(CCCS(=O)(=O)C2CCCCC2)c(=O)c2ccccc21)c1cccc(C)c1,inactive

row,Compound,Potency
1,COc1ccccc1N1CCN(C(=O)Cn2ncc3ccsc3c2=O)CC1,inactive
2,COc1cccc(-n2cc(C(=O)Nc3cccc(C(F)(F)F)c3)c3ccccc3c2=O)c1,inactive
3,COC(=O)Cc1cnc(NC(=O)CSc2nc(C(C)C)cc(=O)[nH]2)s1,"inconclusive: 31.6 µM [inhibitor, single point]"
4,Cc1ccc(NC(=O)N2CCc3cc(S(=O)(=O)N4CCC(C)CC4)ccc32)cc1,inactive
5,CCn1c(CN2CCOCC2)nc2cc(NC(=O)c3ccccc3[N+](=O)[O-])ccc21,inactive
6,O=C(O)CCc1ccc(S(=O)(=O)N2CCOCC2)cc1,"inconclusive: 35.5 µM [inhibitor, single point]"
7,Cc1cc(Cl)ccc1NC(=O)Cn1nc(C)c2c(C)n(-c3ccccc3)nc2c1=O,active: 50.1 µM
8,O=C(O)c1ccccc1C(=O)c1ccc2c(c1)N(Cc1ccc(Cl)c(Cl)c1)C(=O)CO2,inactive
9,CCOC(=O)C1CCN(Cc2nc3ccc(Cl)cc3n2CCO)CC1,"inconclusive: 28.2 µM [inhibitor, single point]"
10,CC(C(=O)O)N1c2cccc3cccc(c23)S1(=O)=O (centres undefined),"inconclusive: 20 µM [inhibitor, partial curve, poor fit]"
11,COc1ccc(CNc2nc(-c3ccccc3)nn2S(=O)(=O)c2ccccc2)cc1,"inconclusive: 89.1 µM [inhibitor, partial curve, poor fit]"
12,Cc1ccc(-c2cc(C(=O)N3CCCc4ccccc43)c3ccccc3n2)cc1,"inconclusive: 56.2 µM [inhibitor, partial curve, poor fit]"
13,NS(=O)(=O)c1ccc(NC(=O)COC(=O)c2ccc([N+](=O)[O-])s2)cc1,active: 79.4 µM
14,C(=Nc1ccc(/C=C/c2ccnc3ccccc23)cc1)c1cccs1,inactive
15,COc1ccc(C(=O)COC(=O)CN2C(=O)C3CC=CCC3C2=O)c(OC)c1 (centres undefined),"inconclusive: 50.1 µM [inhibitor, partial curve, poor fit]"
16,CCOC(=O)C1CCN(C(=O)c2ccc(SC)cc2OC)CC1,"inconclusive: 35.5 µM [inhibitor, partial curve, poor fit]"
17,COC(=O)c1sccc1-c1ccc(C(=O)Nc2cccc(Cl)c2)o1,"inconclusive: 50.1 µM [inhibitor, partial curve, poor fit]"
18,O=[N+]([O-])c1ccc(Oc2ncccn2)cc1,inactive
19,COc1cccc(-c2nc(NCc3cccnc3)c3ccccc3n2)c1O,"inconclusive: 25.1 µM [inhibitor, full curve, poor fit]"
20,COc1cc(/C=C(\C#N)c2nc3ccccc3[nH]2)ccc1OCc1ccc(F)cc1,"inconclusive: 15.8 µM [inhibitor, partial curve, poor fit]"
21,CC(NC(=O)C1CCN(S(=O)(=O)c2ccccc2)CC1)c1ccccc1 (centres undefined),"inconclusive: 89.1 µM [inhibitor, single point]"
22,Cc1ccc(NC(=O)C2(NC(=O)c3cccc(N4C(=O)CSC4c4ccccc4)c3)CCCCC2)cc1 (centres undefined),"inconclusive: 79.4 µM [inhibitor, partial curve]"
23,CCOC(=O)c1sc(NC(=O)Cc2ccccc2OC)nc1C,"inconclusive: 39.8 µM [inhibitor, single point]"

# Not a retest: entries from further up.
row,Compound,Potency
15,COc1ccc(C(=O)COC(=O)CN2C(=O)C3CC=CCC3C2=O)c(OC)c1 (centres undefined),"inconclusive: 50.1 µM [inhibitor, partial curve, poor fit]"
16,CCOC(=O)C1CCN(C(=O)c2ccc(SC)cc2OC)CC1,"inconclusive: 35.5 µM [inhibitor, partial curve, poor fit]"
17,COC(=O)c1sccc1-c1ccc(C(=O)Nc2cccc(Cl)c2)o1,"inconclusive: 50.1 µM [inhibitor, partial curve, poor fit]"

# Reference: PubChem BioAssay AID588590 (National Center for Advancing Translational Sciences (NCATS), 2011)
